Where a chain is given by its changes, count along the chain named. In names and notes the source's numbering stands. No constants are given. Whether binding was seen depends on the method and setting. Some entries that bind do so weakly or less than the wild type. For part of these data: Sequences can lack the tags named with a protein.

By UniProt entry, the sequences of proteins in these tests, tags left out. Where a name states a change or a piece, a line headed by the entry shows the natural chain unless it says otherwise.
UniProt P05648, whole entry: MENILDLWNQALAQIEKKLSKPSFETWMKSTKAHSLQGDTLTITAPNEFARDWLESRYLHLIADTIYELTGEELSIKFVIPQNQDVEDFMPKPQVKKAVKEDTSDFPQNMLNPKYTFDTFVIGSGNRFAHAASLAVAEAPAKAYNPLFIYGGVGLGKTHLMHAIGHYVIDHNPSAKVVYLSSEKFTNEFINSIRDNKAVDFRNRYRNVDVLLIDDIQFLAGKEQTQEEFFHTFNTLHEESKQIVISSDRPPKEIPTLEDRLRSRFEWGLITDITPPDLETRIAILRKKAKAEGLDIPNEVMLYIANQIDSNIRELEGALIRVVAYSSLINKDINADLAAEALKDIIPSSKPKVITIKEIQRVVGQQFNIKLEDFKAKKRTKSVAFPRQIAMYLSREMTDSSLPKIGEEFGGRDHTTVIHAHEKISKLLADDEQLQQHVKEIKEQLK

Sequences and labels used below:
T1: DnaB, full-length, bacterial two-hybrid fusion (B. subtilis), P07908
T1 chain: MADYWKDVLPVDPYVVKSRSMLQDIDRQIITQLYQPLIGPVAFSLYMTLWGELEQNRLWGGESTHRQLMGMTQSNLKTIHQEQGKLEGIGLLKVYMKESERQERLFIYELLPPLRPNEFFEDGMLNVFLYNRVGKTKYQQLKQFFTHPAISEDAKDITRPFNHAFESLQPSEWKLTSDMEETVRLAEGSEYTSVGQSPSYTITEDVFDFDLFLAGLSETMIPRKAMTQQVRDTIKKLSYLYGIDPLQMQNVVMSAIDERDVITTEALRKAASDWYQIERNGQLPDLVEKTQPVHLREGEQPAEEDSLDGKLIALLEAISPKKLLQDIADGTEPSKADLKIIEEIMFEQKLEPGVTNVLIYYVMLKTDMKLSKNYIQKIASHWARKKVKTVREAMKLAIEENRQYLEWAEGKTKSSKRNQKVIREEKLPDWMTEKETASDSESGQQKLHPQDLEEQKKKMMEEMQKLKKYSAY

T2: DnaB, full-length, bacterial two-hybrid fusion (B. subtilis) (UniProt P07908)
T2 sequence: T1 chain

B1: DnaD, wild type, full-length, bacterial two-hybrid fusion, P39787 1-232 (protein)
chain: MKKQQFIDMQEQGTSTIPNLLLTHYKQLGLNETELILLLKIKMHLEKGSYFPTPNQLQEGMSISVEECTNRLRMFIQKGFLFIEECEDQNGIKFEKYSLQPLWGKLYEYIQLAQNQTQERKAEGEQKSLYTIFEEEFARPLSPLECETLAIWQDQDQHDAQLIKHALKEAVLSGKLSFRYIDRILFEWKKNGLKTVEQAKIHSQKFRRVQAKQNEPQKEYKRQVPFYNWLEQ
B2: DnaD with deletion of the last eight amino acids, bacterial two-hybrid fusion (domain or fragment, UniProt P39787 1-224)
chain: MKKQQFIDMQEQGTSTIPNLLLTHYKQLGLNETELILLLKIKMHLEKGSYFPTPNQLQEGMSISVEECTNRLRMFIQKGFLFIEECEDQNGIKFEKYSLQPLWGKLYEYIQLAQNQTQERKAEGEQKSLYTIFEEEFARPLSPLECETLAIWQDQDQHDAQLIKHALKEAVLSGKLSFRYIDRILFEWKKNGLKTVEQAKIHSQKFRRVQAKQNEPQKEYKRQV
B3: DnaD^W229A, bacterial two-hybrid fusion (protein, UniProt P39787 1-232)
chain: B1 chain with W229A
B4: DnaD^L22A, full-length, bacterial two-hybrid fusion (protein, UniProt P39787 1-232)
chain: B1 chain with L22A
B5: DnaD^F6A, full-length, bacterial two-hybrid fusion (protein, UniProt P39787 1-232)
chain: B1 chain with F6A

The target of one test is T1, DnaB, full-length, bacterial two-hybrid …. Kind of test: two-hybrid. Conditions: remark: other sources report otherwise.
On to B1, for which the binding result is given as “binds”.

In another test the target is T2, DnaB, full-length, bacterial two-hybrid fusion (B. subtilis). Put plainly: two-hybrid.
Conditions: not given
B2: the binding entry is reported as “no binding”.
The same measure, in the same setting: with B3 the entry was “no binding”; with B4, “no binding”; with B5, “binds”.

For a further test, the target named is DnaA, wild type, full-length, bacterial two-hybrid fusion (B. subtilis) (UniProt P05648). Put plainly: two-hybrid.
Conditions: not given
Turning to “DnaA^W27A, full-length, bacterial two-hybrid fusion (from UniProt P05648 1-446)”, the binding entry is given as “binds”.
Still for that read-out and setting: with “DnaA^F49A, full-length, bacterial two-hybrid fusion (from UniProt P05648 1-446)” the entry was “binds”; with “DnaA^T26A, full-length, bacterial two-hybrid fusion (from UniProt P05648 1-446)”, “binds”.
The same measure, in the same setting: the same measure for “DnaA, wild type, full-length, bacterial two-hybrid fusion (from UniProt P05648 1-446)”: “binds”.

These data come from article doi:10.1101/2021.08.16.456468.
